# Data: PMC11645656, “MRGPRX4 mediates phospho-drug associated pruritus in a humanized mouse model” (Science translational medicine, 2024)
# Sequences of proteins named here, by UniProt entry; tags and fusion partners are left off.
# UniProt Q96LA9, whole entry L83S/Y250A: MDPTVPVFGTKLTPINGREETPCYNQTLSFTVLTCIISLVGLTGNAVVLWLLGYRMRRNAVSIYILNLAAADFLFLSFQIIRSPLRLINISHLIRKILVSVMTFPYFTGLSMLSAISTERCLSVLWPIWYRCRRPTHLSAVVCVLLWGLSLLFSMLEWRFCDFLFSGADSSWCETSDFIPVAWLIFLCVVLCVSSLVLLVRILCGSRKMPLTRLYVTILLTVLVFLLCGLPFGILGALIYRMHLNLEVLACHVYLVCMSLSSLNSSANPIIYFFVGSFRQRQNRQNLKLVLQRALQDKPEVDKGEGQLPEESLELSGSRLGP
# UniProt Q96LA9, whole entry L83S/W158A: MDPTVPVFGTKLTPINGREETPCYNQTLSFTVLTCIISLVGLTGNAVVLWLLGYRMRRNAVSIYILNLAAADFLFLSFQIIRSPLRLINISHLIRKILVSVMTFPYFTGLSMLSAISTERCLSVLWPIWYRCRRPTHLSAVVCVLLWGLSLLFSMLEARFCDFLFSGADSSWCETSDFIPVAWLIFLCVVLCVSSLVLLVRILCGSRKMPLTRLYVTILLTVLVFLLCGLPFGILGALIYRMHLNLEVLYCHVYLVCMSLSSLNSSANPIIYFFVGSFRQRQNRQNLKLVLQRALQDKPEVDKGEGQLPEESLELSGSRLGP
# Where “and” joins values, the source holds several entries; their conditions need not be identical. Equal entries are not always repeated. Further values from the same series stand in other lists.
# Experiments:
# MRGPRX4 Y250A = target: T1, MRGPRX4 Y250A (Homo sapiens, UniProt Q96LA9, L83S/Y250A); test: Calcium mobilization assay (FLIPR), MRGPRX4 Y250A mutant; assay type: cell-based
# T1 construct: expressed in transfected cells; host or cells: HEK293T, transient
# Description: (§1) Fig. 3. […] (A) Cryo-EM density map of MRGPRX4-Gq in complex with fospropofol. (B) The density map of fospropofol and R82 of MRGPRX4. (C and D) Key molecular interactions between fospropofol and the hydrophilic (C) and hydrophobic (D) part of the agonist binding pocket of MRGPRX4. Amino acid residues interacting with fospropofol are shown as sticks. Hydrogen bond is shown as cyan dashed lines. […] Data are from at least three independent experiments, each performed in triplicate, and reported as the mean ± SEM. (E) and (F) were collected from the same sets of experiments.
# (§2) To generate murine Mrgprs expressing cells, HEK293T cells (ATCC) were seeded on poly-D-lysine coated 96 well plate at 25,000 cells per well one day prior to transfection. HEK293T cells were transiently co-transfected with the mammalian expression plasmids carrying cDNA encoding the murine Mrgpr genes and plasmid inserted with cDNA encoding murine α-subunit of the heterotrimeric G15 protein (Gα15) in triplicates using Lipofectamine LTX reagents (Thermo Scientific). To generate WT, S83L, and alanine mutant MRGPRX4-expressing cells, HEK293T cells were seeded on poly-D-lysine coated 384 well plate at 12,000 cells per well one day prior to transfection. Mammalian expression plasmids pLX304 (vector from Addgene) carrying different MRGPRX4 coding sequences were transiently transfected into HEK293T cells in triplicates with Lipofectamine LTX reagents (Thermo Scientific). Intracellular calcium mobilization assays were performed after one day of transfection. Murine Mrgprs tested include Mrgpra1, Mrgpra2a, Mrgpra2b, Mrgpra3, Mrgpra4, Mrgpra6, Mrgpra9, Mrgpra10, Mrgpra11, Mrgpra12, Mrgpra14, Mrgprb5, Mrgprb6, Mrgprb10, Mrgprb11, and Mrgprc11. WT and mutant MRGPRX4 constructs tested include WT, S83L, R82A, R86A, R95A, W158A, Y250A, and Y254A.
# (§3) To generate MRGPRX4 mutant constructs, site-directed mutagenesis was performed using Q5® Site-Directed Mutagenesis Kit (New England Biolabs). The primers were designed by the NEBaseChanger tool, with forward primers spanning designated mutated sequence corresponding to the desired amino acid substitutions. The plasmids with WT MRGPRX4 sequence served as the templates for polymerase chain reaction (PCR) amplification with Q5 high-fidelity polymerase and respective primer pairs according to the manufacturer’s conditions. Then, the linear PCR products underwent phosphorylation, ligation, and simultaneous degradation of template DNA by incubating them with a KLD enzyme mix consisting of T4 polynucleotide kinase, T4 DNA ligase, and DpnI at room temperature for 5 min. Subsequently, the mutated circular plasmids were transformed into NEB 5-alpha competent E. coli by heat-shock method, and the successfully transformed bacteria were selected on LB plates with selection antibiotics. The next day, the transformant colonies were picked, expanded in LB broth containing selection antibiotics overnight. Plasmids were isolated using QIAprep Spin Miniprep Kit (Qiagen) and subjected to sequencing to confirm the mutation.
# MRGPRX4 W158A = target: T2, MRGPRX4 W158A (Homo sapiens, UniProt Q96LA9, L83S/W158A); test: Calcium mobilization assay (FLIPR), MRGPRX4 W158A mutant; assay type: cell-based
# T2 construct: expressed in transfected cells; host or cells: HEK293T, transient
# Description: as §1, §2, §3
compound,measurement,setting,value
O=C1NC(c2ccccc2)(c2ccccc2)C(=O)N1COP(=O)(O)O [Fosphenytoin],"Calcium mobilization response, dose-response replicate data (Fig. 3E and 3F)",MRGPRX4 Y250A; concentration 188 pM,13.7553 and 14.7456 and 4.5118 and 4.057 and 0.1844 and 1.844 and 3.864 and -0.8174 and 10.7747
same,"Calcium mobilization response, dose-response replicate data (Fig. 3E and 3F)",MRGPRX4 Y250A; concentration 565 pM,17.0565 and 10.7842 and 18.7071 and 3.504 and 4.61 and 1.844 and 4.31 and 7.208 and 16.3478
same,"Calcium mobilization response, dose-response replicate data (Fig. 3E and 3F)",MRGPRX4 Y250A; concentration 1.69e-9 M,19.3674 and 16.0661 and 19.0373 and 5.164 and 2.951 and 0.7377 and 8.1 and 12.781 and 20.5833
same,"Calcium mobilization response, dose-response replicate data (Fig. 3E and 3F)",MRGPRX4 Y250A; concentration 5.08e-9 M,13.095 and 13.7553 and 19.0373 and 7.377 and 5.717 and 3.504 and 6.539 and 4.533 and 14.3415
same,"Calcium mobilization response, dose-response replicate data (Fig. 3E and 3F)",MRGPRX4 Y250A; concentration 1.52e-8 M,19.6975 and 18.7071 and 21.6782 and 8.483 and 6.823 and 4.61 and 14.7873 and 8.545 and 19.4687
same,"Calcium mobilization response, dose-response replicate data (Fig. 3E and 3F)",MRGPRX4 Y250A; concentration 4.57e-8 M,19.6975 and 18.7071 and 2.951 and 7.93 and 7.377 and 11.2205 and 10.9976 and 15.0102
same,"Calcium mobilization response, dose-response replicate data (Fig. 3E and 3F)",MRGPRX4 Y250A; concentration 1.37e-7 M,13.7553 and 14.4155 and 22.9987 and 10.1429 and 8.483 and 11.8893 and 15.2331 and 22.1438
same,"Calcium mobilization response, dose-response replicate data (Fig. 3E and 3F)",MRGPRX4 Y250A; concentration 4.12e-7 M,11.1143 and 12.1046 and 16.7264 and 9.036 and 10.6962 and 10.1429 and 5.87 and 10.1059 and 20.1375
same,"Calcium mobilization response, dose-response replicate data (Fig. 3E and 3F)",MRGPRX4 Y250A; concentration 1.23e-6 M,17.3866 and 17.7168 and 9.464 and 4.61 and 5.717 and 10.6962 and 11.6664 and 6.539 and 17.6853
same,"Calcium mobilization response, dose-response replicate data (Fig. 3E and 3F)",MRGPRX4 Y250A; concentration 3.7e-6 M,12.1046 and 11.1143 and 9.464 and 5.164 and 6.27 and 7.93 and 6.316 and 9.437 and 20.5833
same,"Calcium mobilization response, dose-response replicate data (Fig. 3E and 3F)",MRGPRX4 Y250A; concentration 1.11e-5 M,16.7264 and 9.794 and 5.502 and 4.61 and 10.1429 and 9.59 and 8.768 and 12.3351 and 10.1059
same,"Calcium mobilization response, dose-response replicate data (Fig. 3E and 3F)",MRGPRX4 Y250A; concentration 3.33e-5 M,10.1239 and -0.7692 and 3.521 and 6.27 and 10.6962 and 7.93 and 1.412 and 17.0165 and 11.8893
same,"Calcium mobilization response, dose-response replicate data (Fig. 3E and 3F)",MRGPRX4 Y250A; concentration 0.0001 M,1.541 and -1.76 and 0.8804 and 1.291 and 3.504 and 5.164 and 5.647 and 9.883 and 8.3225
same,"Calcium mobilization response, dose-response replicate data (Fig. 3E and 3F)",MRGPRX4 W158A; concentration 188 pM,-0.1089 and -4.401 and 5.901 and 5.348 and 4.242 and 0.2972 and 7.4308 and 6.093
same,"Calcium mobilization response, dose-response replicate data (Fig. 3E and 3F)",MRGPRX4 W158A; concentration 565 pM,11.1143 and 3.521 and 5.901 and 8.668 and 4.756 and 4.31 and 5.202
same,"Calcium mobilization response, dose-response replicate data (Fig. 3E and 3F)",MRGPRX4 W158A; concentration 1.69e-9 M,3.521 and -4.731 and 9.774 and 6.455 and 3.688 and 2.7494 and 7.654 and 7.4308
same,"Calcium mobilization response, dose-response replicate data (Fig. 3E and 3F)",MRGPRX4 W158A; concentration 5.08e-9 M,5.172 and 2.861 and 4.795 and 8.668 and -0.1486 and 7.4308 and 5.424
same,"Calcium mobilization response, dose-response replicate data (Fig. 3E and 3F)",MRGPRX4 W158A; concentration 1.52e-8 M,4.5118 and 16.7264 and 4.795 and 9.221 and 4.979 and 11.8893 and 7.208
same,"Calcium mobilization response, dose-response replicate data (Fig. 3E and 3F)",MRGPRX4 W158A; concentration 4.57e-8 M,4.182 and 9.134 and 6.455 and 5.901 and 1.635 and 8.991 and 6.985
same,"Calcium mobilization response, dose-response replicate data (Fig. 3E and 3F)",MRGPRX4 W158A; concentration 1.37e-7 M,5.172 and -0.1089 and 13.6468 and 9.221 and 4.795 and 2.081 and 6.985 and 8.1
same,"Calcium mobilization response, dose-response replicate data (Fig. 3E and 3F)",MRGPRX4 W158A; concentration 4.12e-7 M,0.8804 and 6.493 and 6.455 and 11.4338 and 4.795 and 0.5202 and 6.985
same,"Calcium mobilization response, dose-response replicate data (Fig. 3E and 3F)",MRGPRX4 W158A; concentration 1.23e-6 M,0.2202 and -3.41 and 6.455 and 3.688 and 5.901 and -0.3715 and 8.3225 and 5.202
same,"Calcium mobilization response, dose-response replicate data (Fig. 3E and 3F)",MRGPRX4 W158A; concentration 3.7e-6 M,-9.352 and -10.6729 and 3.688 and 12.5403 and 5.901 and 3.641 and 4.756 and 8.768
same,"Calcium mobilization response, dose-response replicate data (Fig. 3E and 3F)",MRGPRX4 W158A; concentration 1.11e-5 M,-9.683 and -8.362 and 3.135 and 5.901 and 4.242 and -0.5945 and 8.545 and 5.87
